The source of these data is PubChem BioAssay AID180 (DTP/NCI, 2004).

In this assay the test system is BDF1 mice, Adenocarcinoma 755 s.c., tumor weight T/C. Put plainly: NCI In Vivo Anticancer Drug Screen. Data for tumor model Adenocarcinoma 755 (subcutaneous) in B6D2F1 (BDF1) mice. As to conditions: T/C endpoint: mean tumor weight, higher T/C = larger tumour; for T/C: evaluated on day 12. In short, it runs like this: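 Values express treated (T) relative to vehicle-dosed control (C) animals, based on survival or tumour size measured after compound treatment of mice bearing a transplanted tumour.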

The mark [1] stands for this setting: dose: 75.0 mg/kg/injection, schedule: Q01DX011 (ip), vehicle: methylcellulose (MC).
[2] abbreviates: dose: 60.0 mg/kg/injection, schedule: Q01DX011 (ip), vehicle: carboxymethylcellulose (CMC).
[3] abbreviates: dose: 400.0 mg/kg/injection, schedule: Q01DX011 (ip), vehicle: carboxymethylcellulose (CMC).
The mark [4] stands for this setting: dose: 200.0 mg/kg/injection, schedule: Q01DX011 (ip), vehicle: carboxymethylcellulose (CMC).
[5] abbreviates: dose: 62.0 mg/kg/injection, schedule: Q01DX011 (ip), vehicle: methylcellulose (MC).
The mark [6] stands for this setting: dose: 56.0 mg/kg/injection, schedule: Q01DX011 (ip), vehicle: carboxymethylcellulose (CMC).

The list is a part of this screen's results and no random one: it gathers tests that were run many times, whatever their T/C, doses with no T/C, and many T/C values between a quarter and a half above the control. Other doses and runs of a compound stand elsewhere. T/C is the treated group as % of the vehicle group. Schedule codes are those of the source, taken here to give the interval after Q, in days (D) or hours (H), and the number of doses after X. Some T/C values carry the count of animals alive at the toxicity check (mostly the fifth day); without a count, all were alive then. Some doses were run more than once; the results are listed from low to high. Some doses have a count of surviving animals in place of a T/C: the source holds a T/C of zero for them, seemingly a mark for toxic or unscored doses. Counts of survivors are from the toxicity check (mostly the fifth day) where no day follows; animals may have died later.

Turning to `CCSCCC(N)C(=O)O` (centres undefined), the T/C (dose: 10.25 mg/kg/injection, schedule: Q01DX011 (ip), vehicle: carboxymethylcellulose (CMC)) was 142 % of control [9 of 10 alive] and the T/C (dose: 41.0 mg/kg/injection, schedule: Q01DX011 (ip), vehicle: carboxymethylcellulose (CMC)) is 144 % of control. In addition, the survivor count is recorded as 5 of 10 under setting [1]; 5 of 10 (dose: 150.0 mg/kg/injection, schedule: Q01DX011 (ip), vehicle: methylcellulose (MC)); 5 of 10 (dose: 452.0 mg/kg/injection, schedule: Q01DX011 (ip), vehicle: carboxymethylcellulose (CMC)); 6 of 10 (dose: 452.0 mg/kg/injection, schedule: Q01DX011 (ip), vehicle: other).
For `CCNc1ncnc2c1cnn2C1CCCO1` (centres undefined), the survivor count is on record as 6 of 10 (dose: 1.5 mg/kg/injection, schedule: Q01DX011 (ip), vehicle: methylcellulose (MC)) and 6 of 10 (dose: 12.5 mg/kg/injection, schedule: Q01DX011 (ip), vehicle: methylcellulose (MC)).
Take `OCC1OC(n2cnc3c(Br)ncnc32)C(O)C1O` (centres undefined): under setting [2], the T/C was 125 % of control.
Turning to `CCCn1cnc2c(=S)nc[nH]c21`, under “dose: 0.5 mg/kg/injection, schedule: Q01DX011 (ip), vehicle: carboxymethylcellulose (CMC)”, the T/C was 138 % of control [9 of 10 alive]. The survivor count is 0 of 10 (dose: 100.0 mg/kg/injection, schedule: Q01DX011 (ip), vehicle: carboxymethylcellulose (CMC)); 3 of 10 (dose: 125.0 mg/kg/injection, schedule: Q01DX011 (ip), vehicle: carboxymethylcellulose (CMC)); 0 of 10 (dose: 250.0 mg/kg/injection, schedule: Q01DX011 (ip), vehicle: carboxymethylcellulose (CMC)).
Take `O=C(O)/C=C\C(=O)Nc1nccs1`: the survivor count by setting is: (dose: 50.0 mg/kg/injection, schedule: Q01DX011 (ip), vehicle: carboxymethylcellulose (CMC)) 6 of 10; under setting [3], 4 of 10.
`Cc1nc(Cl)c(C#N)c(C(F)(F)F)c1N`: under setting [4], the survivor count is 1 of 10.
Take `CN(C)c1ccc(Nc2c3ccccc3nc3ccccc23)cc1`: under “dose: 140.0 mg/kg/injection, schedule: Q01DX011 (ip), vehicle: saline”, the survivor count was 2 of 10.
In the case of `CCN(CC)CCOc1ccc(C2=C(c3ccccc3)CCc3cc(OC)ccc32)cc1`, the survivor count (dose: 100.0 mg/kg/injection, schedule: Q01DX011 (sc), vehicle: steroid suspending solution) is 3 of 10.
For `C=C(Br)CN(CC)CCO`, the survivor count is recorded as 5 of 10 (dose: 100.0 mg/kg/injection, schedule: Q01DX011 (ip), vehicle: other) and 0 of 10 (dose: 200.0 mg/kg/injection, schedule: Q01DX011 (ip), vehicle: other).
Take `CN(C)c1nc(N)c2ncn(C3OC(CO)C(O)C3O)c2n1` (centres undefined): under setting [5], the T/C is 135 % of control.
For the molecule `CCN(CC)CCCC(C)Nc1c2ccc(Cl)cc2nc2ccc(OC)cc12` (centres undefined), the survivor count by setting is: under setting [4], 0 of 10; under setting [3], 0 of 10.
For `O=C(Nc1ncnc2nc[nH]c12)C(Cl)Cl`, the T/C (dose: 50.0 mg/kg/injection, schedule: Q01DX011 (ip), vehicle: saline) was 126 % of control. In addition, under “dose: 200.0 mg/kg/injection, schedule: Q01DX011 (ip), vehicle: saline”, the survivor count is listed as 2 of 10.
Turning to `Clc1ccc(CNc2ncnc3c2cnn3C2CCCCO2)cc1Cl` (centres undefined), for the setting “dose: 50.0 mg/kg/injection, schedule: Q01DX011 (ip), vehicle: methylcellulose (MC)”, the T/C was 137 % of control.
With `COc1cc(-c2ccc(N=Nc3c(O)ccc4ccccc34)c(OC)c2)ccc1N=Nc1ccc2c(S(=O)(=O)O)cc(S(=O)(=O)O)c(N)c2c1O`, the survivor count (dose: 450.0 mg/kg/injection, schedule: Q01DX011 (ip), vehicle: carboxymethylcellulose (CMC)) is given as 2 of 10.
Regarding `Cn1c(=O)c2c(nc(/N=C/c3ccccc3)n2C)n(C)c1=O`, the survivor count under setting [1] was 2 of 10.
Take `C=C(C)C(=O)OCC1CO1` (centres undefined): the T/C (dose: 100.0 mg/kg/injection, schedule: Q01DX006 (ip), vehicle: water) is 126 % of control. The survivor count is reported as 2 of 10 (dose: 250.0 mg/kg/injection, schedule: Q01DX011 (ip), vehicle: other) and 4 of 10 (dose: 300.0 mg/kg/injection, schedule: Q01DX011 (oral), vehicle: other).
Take `CCCCCN(CCCCC)CC(O)c1ccc(Cl)c2ccccc12` (centres undefined): the survivor count under setting [2] is listed as 5 of 10; the survivor count (dose: 120.0 mg/kg/injection, schedule: Q01DX011 (ip), vehicle: carboxymethylcellulose (CMC)) is reported as 4 of 10; the survivor count (dose: 240.0 mg/kg/injection, schedule: Q01DX011 (ip), vehicle: carboxymethylcellulose (CMC)) is on record as 5 of 10.
For `CC1CCN2CCC(O)C12` (centres undefined), the T/C runs as follows: (dose: 14.0 mg/kg/injection, schedule: Q01DX011 (ip), vehicle: carboxymethylcellulose (CMC)) 130 % of control; (dose: 28.0 mg/kg/injection, schedule: Q01DX011 (ip), vehicle: carboxymethylcellulose (CMC)) 136 % of control; under setting [6], 127 % of control. Also, the survivor count was 6 of 10 under setting [6] and 2 of 10 (dose: 113.0 mg/kg/injection, schedule: Q01DX011 (ip), vehicle: carboxymethylcellulose (CMC)).
Take `CCCNS(=O)(=O)c1ncnc2nc[nH]c12`: the survivor count (dose: 75.0 mg/kg/injection, schedule: Q01DX011 (ip), vehicle: carboxymethylcellulose (CMC)) is 2 of 10.
As to `COc1cc(-c2ccc(N=Nc3ccc4c(S(=O)(=O)O)cc(S(=O)(=O)O)c(N)c4c3O)c(OC)c2)ccc1N=Nc1ccc2c(S(=O)(=O)O)cc(S(=O)(=O)O)c(N)c2c1O`, the survivor count reads like this: (dose: 16.0 mg/kg/injection, schedule: Q01DX011 (ip), vehicle: carboxymethylcellulose (CMC)) 3 of 10; (dose: 32.0 mg/kg/injection, schedule: Q01DX011 (ip), vehicle: carboxymethylcellulose (CMC)) 3 of 10.
`C/C(=N/NC(=O)c1ccncc1)c1ccc(Cl)c(Cl)c1`: where the note is “dose: 120.0 mg/kg/injection, schedule: Q01DX011 (ip), vehicle: methylcellulose (MC)”, the survivor count was 6 of 10.
As for `Cc1cnc(SCc2ccccc2)[nH]c1=O`, the T/C under setting [5] was 131 % of control.
As to `CCCNc1ncnc2c1cnn2C`, the survivor count (dose: 25.0 mg/kg/injection, schedule: Q01DX011 (ip), vehicle: methylcellulose (MC)) is given as 3 of 10.
On to `CC1(C)O[C@@H]2C[C@H]3[C@@H]4CCC5=CC(=O)CC[C@]5(C)[C@@]4(F)[C@@H](O)C[C@]3(C)[C@]2(C(=O)CO)O1`, for which, for the setting “dose: 3.0 mg/kg/injection, schedule: Q01DX011 (sc), vehicle: steroid suspending solution”, the T/C was 25 [9 of 10 alive], 30, 34, 36 % of control. Also, the survivor count (dose: 48.0 mg/kg/injection, schedule: Q01DX011 (sc), vehicle: steroid suspending solution) is 3 of 12 and the survivor count (dose: 72.0 mg/kg/injection, schedule: Q01DX011 (sc), vehicle: steroid suspending solution) is reported as 1 of 12.
Regarding `Cn1c(=O)c2[nH]c(N/N=C/c3ccc(Br)cc3)nc2n(C)c1=O`, the survivor count (dose: 960.0 mg/kg/injection, schedule: Q01DX011 (ip), vehicle: carboxymethylcellulose (CMC)) is listed as 2 of 10.
In the case of `C[C@]12CCC(=O)C=C1CC[C@@H]1[C@@H]2[C@@H](O)C[C@@]2(C)[C@H]1CC[C@]2(O)C(=O)COC(=O)CCC(=O)O`, the survivor count (dose: 700.0 mg/kg/injection, schedule: Q01DX011 (sc), vehicle: steroid suspending solution) is 6 of 10.
`CSc1ncc(Br)c(SCc2ccc(Cl)cc2Cl)n1`: the survivor count is, setting by setting: under setting [5], 6 of 10; (dose: 125.0 mg/kg/injection, schedule: Q01DX011 (ip), vehicle: methylcellulose (MC)) 5 of 10.
Regarding `C[C@]12CCC(=O)C=C1CC[C@@H]1[C@@H]2[C@@H](O)C[C@@]2(C)[C@H]1CC[C@]2(O)C(=O)CO`, the survivor count runs as follows: (dose: 10.0 mg/kg/injection, schedule: Q01DX011 (sc), vehicle: steroid suspending solution) 2 of 10; (dose: 160.0 mg/kg/injection, schedule: Q01DX011 (sc), vehicle: steroid suspending solution) 6 of 10.
